From PMC9605963 come the findings set out here.

Chains of the proteins cited; added tags and fusions are not shown. Lines headed by an entry give the natural chain unless they say otherwise; changes in a name come on top.
UniProt Q86U44: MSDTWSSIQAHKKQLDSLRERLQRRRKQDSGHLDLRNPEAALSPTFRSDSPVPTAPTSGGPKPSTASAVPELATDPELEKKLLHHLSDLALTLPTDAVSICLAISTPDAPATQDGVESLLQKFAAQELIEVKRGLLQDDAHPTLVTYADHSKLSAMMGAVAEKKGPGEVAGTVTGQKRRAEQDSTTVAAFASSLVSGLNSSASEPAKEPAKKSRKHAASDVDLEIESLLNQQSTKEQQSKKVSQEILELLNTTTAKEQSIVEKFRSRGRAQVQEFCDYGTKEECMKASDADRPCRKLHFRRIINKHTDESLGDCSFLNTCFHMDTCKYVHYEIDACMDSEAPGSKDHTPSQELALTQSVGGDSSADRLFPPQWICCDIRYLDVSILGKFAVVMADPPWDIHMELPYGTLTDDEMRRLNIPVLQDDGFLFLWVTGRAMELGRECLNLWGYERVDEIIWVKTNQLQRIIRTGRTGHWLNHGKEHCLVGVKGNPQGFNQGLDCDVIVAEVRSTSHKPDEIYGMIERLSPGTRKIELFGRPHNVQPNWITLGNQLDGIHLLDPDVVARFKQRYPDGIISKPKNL
UniProt P52294: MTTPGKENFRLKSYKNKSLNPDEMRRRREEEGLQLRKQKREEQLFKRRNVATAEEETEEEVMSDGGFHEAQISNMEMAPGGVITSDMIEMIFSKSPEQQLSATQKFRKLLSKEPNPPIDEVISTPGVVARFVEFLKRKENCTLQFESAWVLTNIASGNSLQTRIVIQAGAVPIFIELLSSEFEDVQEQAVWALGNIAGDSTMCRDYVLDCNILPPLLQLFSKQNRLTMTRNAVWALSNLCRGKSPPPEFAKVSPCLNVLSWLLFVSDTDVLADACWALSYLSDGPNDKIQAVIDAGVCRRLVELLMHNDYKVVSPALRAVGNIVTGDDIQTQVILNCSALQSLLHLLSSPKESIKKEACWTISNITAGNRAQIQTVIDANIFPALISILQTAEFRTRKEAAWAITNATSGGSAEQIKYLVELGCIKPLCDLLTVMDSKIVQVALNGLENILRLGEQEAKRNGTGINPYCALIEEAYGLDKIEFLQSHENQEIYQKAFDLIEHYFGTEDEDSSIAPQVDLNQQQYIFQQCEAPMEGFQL
UniProt P55884: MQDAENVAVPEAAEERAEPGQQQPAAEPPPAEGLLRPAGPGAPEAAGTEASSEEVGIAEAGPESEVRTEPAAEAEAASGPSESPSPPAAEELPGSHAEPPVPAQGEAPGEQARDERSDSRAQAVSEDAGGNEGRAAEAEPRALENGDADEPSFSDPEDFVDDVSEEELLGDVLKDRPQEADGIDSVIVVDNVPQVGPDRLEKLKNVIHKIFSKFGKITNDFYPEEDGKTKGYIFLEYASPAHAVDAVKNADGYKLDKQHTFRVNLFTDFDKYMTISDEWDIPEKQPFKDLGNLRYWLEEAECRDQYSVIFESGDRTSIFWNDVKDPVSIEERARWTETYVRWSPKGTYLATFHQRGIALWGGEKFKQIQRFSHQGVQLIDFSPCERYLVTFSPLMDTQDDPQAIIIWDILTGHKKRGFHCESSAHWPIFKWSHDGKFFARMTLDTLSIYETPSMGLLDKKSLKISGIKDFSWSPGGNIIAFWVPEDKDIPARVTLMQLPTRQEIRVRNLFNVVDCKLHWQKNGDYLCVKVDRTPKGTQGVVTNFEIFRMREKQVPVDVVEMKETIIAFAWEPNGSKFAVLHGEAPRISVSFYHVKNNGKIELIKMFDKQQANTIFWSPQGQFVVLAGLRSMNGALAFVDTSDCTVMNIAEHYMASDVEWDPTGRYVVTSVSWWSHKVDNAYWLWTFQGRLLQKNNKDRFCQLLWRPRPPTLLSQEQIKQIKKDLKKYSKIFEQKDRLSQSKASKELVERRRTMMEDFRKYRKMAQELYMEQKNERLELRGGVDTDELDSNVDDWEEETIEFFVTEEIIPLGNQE
UniProt O15372: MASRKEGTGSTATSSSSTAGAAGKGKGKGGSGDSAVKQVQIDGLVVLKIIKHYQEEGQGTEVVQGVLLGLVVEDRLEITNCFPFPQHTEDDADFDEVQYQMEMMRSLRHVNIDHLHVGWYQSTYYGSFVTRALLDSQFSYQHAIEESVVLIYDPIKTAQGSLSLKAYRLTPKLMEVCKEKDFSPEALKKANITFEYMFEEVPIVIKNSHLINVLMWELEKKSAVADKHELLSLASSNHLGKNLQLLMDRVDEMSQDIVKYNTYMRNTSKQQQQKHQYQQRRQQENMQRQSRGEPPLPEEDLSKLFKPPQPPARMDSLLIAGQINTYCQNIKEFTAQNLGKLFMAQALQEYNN

Read-outs that look alike come from different tables or passages of the source. No constants are given. Whether binding was seen depends on the method and setting. In cells and extracts the contact can be indirect. Some results given as binding are weak or reduced against the parent protein; the word gives no strength.

The target in assay [1] is Myc-METTL3 (wild type), ectopic in HEK293T cells (UniProt Q86U44). The experiment in a line: co-IP; lysates of HEK293T cells transfected with the indicated constructs; lysis buffer 50 mM Tris pH 7.4, 150 mM NaCl, 1% Triton with 5 mM NAM; washed five times with NETN buffer; immunoblot. For orientation: Immunoblotting shows a protein as a band on a membrane.
Assay [2] deals with Myc-METTL3 K177Q (acetylation-mimetic), ectopic in HEK293T cells (UniProt Q86U44). Described as above.
Assay [3] has as its target Myc-METTL3 K177R (acetylation-deficient), ectopic in HEK293T cells (UniProt Q86U44). Described as above.
The target of assay [4] is recombinant GST-METTL3 (wild type) (UniProt Q86U44). The experiment in a line: pull-down; around 10 μg recombinant GST-METTL3 mixed with lysates of HEK293T cells transfected with HA-importin α5, 4 °C for 2 h; washed 5 times with NETN buffer; proteins retained on sepharose blotted; only the target purified.
The target in assay [5] is recombinant GST-METTL3 K177Q (UniProt Q86U44). The description is as above.
Assay [6] deals with recombinant GST-METTL3 K177R (UniProt Q86U44). Described as above.
Assay [7] addresses Myc-METTL3^K177Q in METTL3 reconstituting MDA-MB-231 cells (UniProt Q86U44). The experiment in a line: co-IP; lysates of METTL3 reconstituting MDA-MB-231 cells treated with RNase A; immunoprecipitation of Myc-METTL3; immunoblot of endogenous partners.
The target of assay [8] is endogenous METTL3 (human (endogenous in MDA-MB-231)) (UniProt Q86U44). Description: co-IP; endogenous proteins, lysates of MDA-MB-231 cells without ASP/NAM; IP and IB.
Assay [9] has the same target. The experiment in a line: condition: only cells treated with 5 mM ASP and 3 mM NAM for 24 h; co-IP; endogenous proteins, lysates of MDA-MB-231 cells treated with 5 mM ASP and 3 mM NAM for 24 h; IP and IB.
Assay [10] concerns the target Myc-METTL3 (wild type), ectopic in HEK293T cells (UniProt Q86U44). Description: co-IP; lysates of HEK293T cells transfected with the indicated constructs; lysis buffer 50 mM Tris pH 7.4, 150 mM NaCl, 1% Triton with 5 mM NAM; washed five times with NETN buffer; immunoblot. This is another data set of the same source.

In the case of “HA-importin α5 (from UniProt P52294 1-538)”, the binding entry in assay [1] is “binds”; in [2], “binds weakly”; in assay [3], “binds”; in [4] it was “binds”; in [5], “binds weakly”; in [6], “binds”.

As to “endogenous eIF3b (from UniProt P55884 1-814)”, the binding entry in assay [7] is on record as “binds”.

“endogenous eIF3h (from UniProt O15372 1-352)”: in assay [7], the binding result is reported as “binds”.

In the case of “endogenous importin α5 (from UniProt P52294 1-538)”, the figures for the binding entry in [8] and in assay [9] were “binds” and “no binding”, respectively.

B1: endogenous SIRT2 (enzyme, UniProt Q8IXJ6 1-389)
chain: MAEPDPSHPLETQAGKVQEAQDSDSDSEGGAAGGEADMDFLRNLFSQTLSLGSQKERLLDELTLEGVARYMQSERCRRVICLVGAGISTSAGIPDFRSPSTGLYDNLEKYHLPYPEAIFEISYFKKHPEPFFALAKELYPGQFKPTICHYFMRLLKDKGLLLRCYTQNIDTLERIAGLEQEDLVEAHGTFYTSHCVSASCRHEYPLSWMKEKIFSEVTPKCEDCQSLVKPDIVFFGESLPARFFSCMQSDFLKVDLLLVMGTSLQVQPFASLISKAPLSTPRLLINKEKAGQSDPFLGMIMGLGGGMDFDSKKAYRDVAWLGECDQGCLALAELLGWKKELEDLVRREHASIDAQSGAGVPNPSTSASPKKSPPPAKDEARTTEREKPQ
Take B1: the binding result in assay [10] is on record as “no binding”.
